From paper doi:10.1101/545400
These are yes or no findings as the source states them, for the method shown. Binding seen in cells or lysates may run through a third protein. Some entries that bind do so weakly or less than the wild type.

Protein sequences, listed by entry. Tags and fused reporters are not part of them.
UniProt O43353: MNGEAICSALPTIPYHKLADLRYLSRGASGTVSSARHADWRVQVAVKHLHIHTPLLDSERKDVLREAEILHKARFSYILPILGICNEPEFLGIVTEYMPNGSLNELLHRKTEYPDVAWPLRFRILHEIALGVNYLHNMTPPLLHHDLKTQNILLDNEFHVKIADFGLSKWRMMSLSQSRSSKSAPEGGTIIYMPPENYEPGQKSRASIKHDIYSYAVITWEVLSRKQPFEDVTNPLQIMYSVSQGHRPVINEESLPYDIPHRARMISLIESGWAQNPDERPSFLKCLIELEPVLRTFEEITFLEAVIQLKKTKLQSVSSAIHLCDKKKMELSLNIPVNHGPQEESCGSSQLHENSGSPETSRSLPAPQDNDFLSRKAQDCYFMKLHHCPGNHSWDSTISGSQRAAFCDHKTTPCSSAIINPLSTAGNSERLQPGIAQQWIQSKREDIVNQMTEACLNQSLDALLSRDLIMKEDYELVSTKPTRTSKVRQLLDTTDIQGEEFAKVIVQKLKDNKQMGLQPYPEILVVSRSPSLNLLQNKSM
UniProt P62258: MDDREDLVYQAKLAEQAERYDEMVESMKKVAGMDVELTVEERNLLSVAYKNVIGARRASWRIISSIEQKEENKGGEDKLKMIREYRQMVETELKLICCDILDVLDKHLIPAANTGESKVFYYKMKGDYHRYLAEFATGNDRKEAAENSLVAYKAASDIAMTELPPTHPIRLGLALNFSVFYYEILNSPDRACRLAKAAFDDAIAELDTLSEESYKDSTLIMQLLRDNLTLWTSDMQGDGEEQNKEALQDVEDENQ

B1: Erlin-1 (protein, UniProt O75477 1-348)
chain: MNMTQARVLVAAVVGLVAVLLYASIHKIEEGHLAVYYRGGALLTSPSGPGYHIMLPFITTFRSVQTTLQTDEVKNVPCGTSGGVMIYIDRIEVVNMLAPYAVFDIVRNYTADYDKTLIFNKIHHELNQFCSAHTLQEVYIELFDQIDENLKQALQKDLNLMAPGLTIQAVRVTKPKIPEAIRRNFELMEAEKTKLLIAAQKQKVVEKEAETERKKAVIEAEKIAQVAKIRFQQKVMEKETEKRISEIEDAAFLAREKAKADAEYYAAHKYATSNKHKLTPEYLELKKYQAIASNSKIYFGSNIPNMFVDSSCALKYSDIRTGRESSLPSKEALEPSGENVIQNKESTG
B2: Erlin-2 (protein, UniProt O94905 1-339)
chain: MAQLGAVVAVASSFFCASLFSAVHKIEEGHIGVYYRGGALLTSTSGPGFHLMLPFITSYKSVQTTLQTDEVKNVPCGTSGGVMIYFDRIEVVNFLVPNAVYDIVKNYTADYDKALIFNKIHHELNQFCSVHTLQEVYIELFDQIDENLKLALQQDLTSMAPGLVIQAVRVTKPNIPEAIRRNYELMESEKTKLLIAAQKQKVVEKEAETERKKALIEAEKVAQVAEITYGQKVMEKETEKKISEIEDAAFLAREKAKADAECYTAMKIAEANKLKLTPEYLQLMKYKAIASNSKIYFGKDIPNMFMDSAGSVSKQFEGLADKLSFGLEDEPLETATKEN

Experiments:
[1] = molecular target: EGFP-RIPK2 (receptor interacting serine/threonine kinase 2) (human) (UniProt O43353); experiment: co-IP
[2] = molecular target: endogenous RIPK2 (human (endogenous in HeLa)) (UniProt O43353); experiment: co-IP

Molecule | binding [1] | binding [2]
14-3-3ε (endogenous) (from UniProt P62258 1-255) | binds | –
B1 | binds | binds
B2 | binds | binds
